{"sequences": {"note": "Protein sequences, listed by entry. Tags and fused reporters are not part of them. Lines headed by an entry give the natural chain unless they say otherwise; changes in a name come on top.", "UniProt Q05655": "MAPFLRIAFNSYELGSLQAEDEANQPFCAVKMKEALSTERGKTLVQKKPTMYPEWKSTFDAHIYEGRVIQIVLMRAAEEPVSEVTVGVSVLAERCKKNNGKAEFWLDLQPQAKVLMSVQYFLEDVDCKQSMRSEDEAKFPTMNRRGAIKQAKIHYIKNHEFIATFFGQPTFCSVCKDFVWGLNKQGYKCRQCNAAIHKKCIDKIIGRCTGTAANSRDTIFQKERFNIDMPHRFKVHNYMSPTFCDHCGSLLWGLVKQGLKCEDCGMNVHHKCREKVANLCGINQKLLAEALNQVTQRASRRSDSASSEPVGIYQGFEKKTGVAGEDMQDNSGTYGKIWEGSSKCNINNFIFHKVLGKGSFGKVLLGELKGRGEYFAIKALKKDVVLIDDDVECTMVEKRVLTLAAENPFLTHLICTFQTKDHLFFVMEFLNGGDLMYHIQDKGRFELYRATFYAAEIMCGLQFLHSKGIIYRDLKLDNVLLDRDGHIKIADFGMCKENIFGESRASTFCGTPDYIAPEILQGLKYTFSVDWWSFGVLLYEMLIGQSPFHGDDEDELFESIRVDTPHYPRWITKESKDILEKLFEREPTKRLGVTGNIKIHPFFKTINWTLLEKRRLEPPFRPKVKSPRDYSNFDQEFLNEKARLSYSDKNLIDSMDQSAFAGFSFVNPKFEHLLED"}, "source": "patent US20110091485A1", "about": "“MODULATION OF CELL JUNCTIONS” (priority 2007, published 2011)", "target": "T1, human Gp140 (CDCP1, Cub Domain Containing Protein 1), 140 kDa transmembrane glycoprotein (human) (UniProt Q9H5V8)", "T1 sequence (looked up)": "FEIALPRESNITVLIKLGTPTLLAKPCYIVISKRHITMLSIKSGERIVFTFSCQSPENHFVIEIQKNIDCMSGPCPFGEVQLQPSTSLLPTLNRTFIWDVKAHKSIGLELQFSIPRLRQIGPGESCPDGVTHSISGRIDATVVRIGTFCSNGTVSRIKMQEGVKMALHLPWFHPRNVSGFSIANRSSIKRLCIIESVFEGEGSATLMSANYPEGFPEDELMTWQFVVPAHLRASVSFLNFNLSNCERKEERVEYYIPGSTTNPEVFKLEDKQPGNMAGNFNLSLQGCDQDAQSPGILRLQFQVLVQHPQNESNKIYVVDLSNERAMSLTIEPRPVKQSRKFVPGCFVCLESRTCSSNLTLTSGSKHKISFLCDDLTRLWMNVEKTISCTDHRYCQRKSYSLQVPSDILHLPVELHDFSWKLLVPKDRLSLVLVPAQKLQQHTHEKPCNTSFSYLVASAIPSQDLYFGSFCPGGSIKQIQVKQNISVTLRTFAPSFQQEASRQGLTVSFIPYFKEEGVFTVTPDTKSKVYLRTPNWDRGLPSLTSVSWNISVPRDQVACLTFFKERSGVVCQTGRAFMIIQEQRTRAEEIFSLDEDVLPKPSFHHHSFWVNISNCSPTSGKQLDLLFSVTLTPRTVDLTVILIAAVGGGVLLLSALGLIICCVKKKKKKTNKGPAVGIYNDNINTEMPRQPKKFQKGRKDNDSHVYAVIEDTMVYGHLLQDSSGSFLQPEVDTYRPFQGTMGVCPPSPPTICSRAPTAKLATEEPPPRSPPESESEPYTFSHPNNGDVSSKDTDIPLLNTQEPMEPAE", "experiment": "keratinocytes treated with ActGp140 mAb; method not described there", "note": "These are yes or no findings as the source states them, for the method shown. Some results given as binding are weak or reduced against the parent protein; the word gives no strength.", "data": [{"substance": "protein kinase C delta (PKCδ) (from UniProt Q05655 1-676) (enzyme)", "values": [{"measurement": "binding", "result": "binds"}]}]}
